# The supplement of paper PMC8728848
# Some of the results follow.
# Assays:
# Test in all cases: glycan array binding signal (z-score within array); higher = stronger binding
# Conditions in all cases: glycan notation: IUPAC condensed, linker removed
# [1] = target: Man(a1-2)Man(a1-3)[Man(a1-2)Man(a1-6)]Man(a1-6)[Man(a1-2)Man(a1-2)Man(a1-3)]Man
# Procedure, shortened: (§1)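 Glycan array binding is given as a within-array Z-score, which can be read as non-binding when negative. The arrays, 3228 of them, came from the Consortium for Functional Glycomics database and were retained only where the protein sequence was available. Z-scores were averaged across arrays of the same protein sequence at different concentrations or buffers and across linkers.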
# [2] = target: Man(a1-2)Man(a1-3)[Man(a1-2)Man(a1-6)]Man(a1-6)[Man(a1-2)Man(a1-2)Man(a1-3)]Man(b1-4)GlcNAc(b1-4)GlcNAc
# Procedure, shortened: as §1
# [3] = target: Man(a1-2)Man(a1-3)[Man(a1-6)]Man(a1-6)[Man(a1-2)Man(a1-3)]Man(b1-4)GlcNAc(b1-4)GlcNAc
# Procedure, shortened: as §1
# [4] = target: Man(a1-2)Man(a1-6)[Man(a1-3)]Man(a1-6)[Man(a1-2)Man(a1-2)Man(a1-3)]Man
# Procedure, shortened: as §1
# [5] = target: Man(a1-2)Man(a1-6)[Man(a1-3)]Man(a1-6)[Man(a1-2)Man(a1-2)Man(a1-3)]Man(b1-4)GlcNAc(b1-4)GlcNAc
# Procedure, shortened: as §1
# Man(a1-3)[Man(a1-6)]Man = target: Man(a1-3)[Man(a1-6)]Man
# Procedure, shortened: as §1
# [6] = target: Man(a1-3)[Man(a1-6)]Man(a1-6)[Man(a1-2)Man(a1-3)]Man(b1-4)GlcNAc(b1-4)GlcNAc
# Procedure, shortened: as §1
# [7] = target: Man(a1-3)[Man(a1-6)]Man(a1-6)[Man(a1-3)]Man
# Procedure, shortened: as §1
# [8] = target: Man(a1-3)[Man(a1-6)]Man(a1-6)[Man(a1-3)]Man(b1-4)GlcNAc(b1-4)GlcNAc
# Procedure, shortened: as §1
# [9] = target: Man(a1-3)[Man(a1-6)]Man(b1-4)GlcNAc(b1-4)GlcNAc
# Procedure, shortened: as §1
# [10] = target: Man(a1-3)[Man(a1-6)]Man(b1-4)GlcNAc(b1-4)[Fuc(a1-6)]GlcNAc
# Procedure, shortened: as §1
# Man(a1-6)Man = target: Man(a1-6)Man
# Procedure, shortened: as §1
# Man(b1-4)GlcNAc = target: Man(b1-4)GlcNAc
# Procedure, shortened: as §1
# MurNAc(b1-4)GlcNAc = target: MurNAc(b1-4)GlcNAc
# Procedure, shortened: as §1
# Neu5Ac(a2-3)Gal = target: Neu5Ac(a2-3)Gal
# Procedure, shortened: as §1
# [11] = target: Neu5Ac(a2-3)Gal(b1-3)GalNAc
# Procedure, shortened: as §1
# [12] = target: Neu5Ac(a2-3)Gal(b1-3)GalNAc(b1-3)Gal(a1-4)Gal(b1-4)Glc
# Procedure, shortened: as §1
# [13] = target: Neu5Ac(a2-3)Gal(b1-3)GalNAc(b1-4)Gal(b1-4)Glc
# Procedure, shortened: as §1
# [14] = target: Neu5Ac(a2-3)Gal(b1-3)GalNAc(b1-4)[Neu5Ac(a2-3)]Gal(b1-4)Glc
# Procedure, shortened: as §1
# [15] = target: Neu5Ac(a2-3)Gal(b1-3)GalNAc(b1-4)[Neu5Ac(a2-8)Neu5Ac(a2-3)]Gal(b1-4)Glc
# Procedure, shortened: as §1
# [16] = target: Neu5Ac(a2-3)Gal(b1-3)GalNAc6S
# Procedure, shortened: as §1
# [17] = target: Neu5Ac(a2-3)Gal(b1-3)GlcNAc
# Procedure, shortened: as §1
# [18] = target: Neu5Ac(a2-3)Gal(b1-3)GlcNAc(b1-2)Man
# Procedure, shortened: as §1
# [19] = target: Neu5Ac(a2-3)Gal(b1-3)GlcNAc(b1-2)Man(a1-3)[GlcNAc(b1-4)][Neu5Ac(a2-3)Gal(b1-3)GlcNAc(b1-2)Man(a1-6)]Man(b1-4)GlcNAc(b1-4)GlcNAc
# Procedure, shortened: as §1
# [20] = target: Neu5Ac(a2-3)Gal(b1-3)GlcNAc(b1-2)Man(a1-3)[Neu5Ac(a2-3)Gal(b1-3)GlcNAc(b1-2)Man(a1-6)]Man(b1-4)GlcNAc(b1-4)GlcNAc
# Procedure, shortened: as §1
# [21] = target: Neu5Ac(a2-3)Gal(b1-3)GlcNAc(b1-2)[Neu5Ac(a2-3)Gal(b1-3)GlcNAc(b1-4)]Man(a1-6)[Neu5Ac(a2-3)Gal(b1-3)GlcNAc(b1-2)Man(a1-3)]Man(b1-4)GlcNAc(b1-4)GlcNAc
# Procedure, shortened: as §1
# [22] = target: Neu5Ac(a2-3)Gal(b1-3)GlcNAc(b1-3)Gal(b1-3)GlcNAc
# Procedure, shortened: as §1
# [23] = target: Neu5Ac(a2-3)Gal(b1-3)GlcNAc(b1-3)Gal(b1-4)GlcNAc
# Procedure, shortened: as §1
# [24] = target: Neu5Ac(a2-3)Gal(b1-3)GlcNAc(b1-3)GalNAc
# Procedure, shortened: as §1
# [25] = target: Neu5Ac(a2-3)Gal(b1-3)GlcNAc(b1-6)GalNAc
# Procedure, shortened: as §1
# [26] = target: Neu5Ac(a2-3)Gal(b1-3)GlcNAc6S
# Procedure, shortened: as §1
# [27] = target: Neu5Ac(a2-3)Gal(b1-3)[Fuc(a1-4)]GlcNAc
# Procedure, shortened: as §1
# [28] = target: Neu5Ac(a2-3)Gal(b1-3)[Fuc(a1-4)]GlcNAc(b1-3)Gal(b1-3)[Fuc(a1-4)]GlcNAc
# Procedure, shortened: as §1
# [29] = target: Neu5Ac(a2-3)Gal(b1-3)[Fuc(a1-4)]GlcNAc(b1-3)Gal(b1-4)[Fuc(a1-3)]GlcNAc
# Procedure, shortened: as §1
# [30] = target: Neu5Ac(a2-3)Gal(b1-3)[GlcNAc(b1-6)]GalNAc
# Procedure, shortened: as §1
# [31] = target: Neu5Ac(a2-3)Gal(b1-3)[Neu5Ac(a2-6)]GalNAc
# Procedure, shortened: as §1
# [32] = target: Neu5Ac(a2-3)Gal(b1-3)[Neu5Ac(a2-6)]GlcNAc(b1-3)[Fuc(a1-3)[Gal(b1-4)]GlcNAc(b1-6)]Gal(b1-4)Glc
# Procedure, shortened: as §1
# [33] = target: Neu5Ac(a2-3)Gal(b1-3)]Neu5Ac(a2-3)Gal(b1-4)]GlcNAc
# Procedure, shortened: as §1
# Neu5Ac(a2-3)Gal(b1-4)Glc = target: Neu5Ac(a2-3)Gal(b1-4)Glc
# Procedure, shortened: as §1
# [34] = target: Neu5Ac(a2-3)Gal(b1-4)GlcNAc
# Procedure, shortened: as §1
# [35] = target: Neu5Ac(a2-3)Gal(b1-4)GlcNAc(b1-2)Man
# Procedure, shortened: as §1
# [36] = target: Neu5Ac(a2-3)Gal(b1-4)GlcNAc(b1-2)Man(a1-3)[GlcNAc(b1-4)][Neu5Ac(a2-3)Gal(b1-4)GlcNAc(b1-2)Man(a1-6)]Man(b1-4)GlcNAc(b1-4)GlcNAc
# Procedure, shortened: as §1
# [37] = target: Neu5Ac(a2-3)Gal(b1-4)GlcNAc(b1-2)Man(a1-3)[Neu5Ac(a2-3)Gal(b1-4)GlcNAc(b1-2)Man(a1-6)]Man(b1-4)GlcNAc(b1-4)GlcNAc
# Procedure, shortened: as §1
# [38] = target: Neu5Ac(a2-3)Gal(b1-4)GlcNAc(b1-2)Man(a1-3)[Neu5Ac(a2-3)Gal(b1-4)GlcNAc(b1-2)Man(a1-6)]Man(b1-4)GlcNAc(b1-4)[Fuc(a1-6)]GlcNAc
# Procedure, shortened: as §1
# [39] = target: Neu5Ac(a2-3)Gal(b1-4)GlcNAc(b1-2)Man(a1-3)[Neu5Ac(a2-6)Gal(b1-4)GlcNAc(b1-2)Man(a1-6)]Man(b1-4)GlcNAc(b1-4)GlcNAc
# Procedure, shortened: as §1
binder,measurement,setting,value
Mermaid1 (Stilbonema majum) (protein) MGSSHHHHHHSSGLVPRGSHMAASGWLRSPQGTVVKLYRRSLSWSKADEFCKDVDGRLVVDRTADMHLFLIKNVLKEKKSRVWVGLRRTAPHSRTWIWSDGTRQNEDDLDANLWLRDEPNDAAGEEECALFMYSPWEKAWGLNDYLCRGGCRSYQFICEKWIR,glycan array binding signal (z-score),[1],-0.745
same,glycan array binding signal (z-score),[2],0.06
same,glycan array binding signal (z-score),[3],-0.285
same,glycan array binding signal (z-score),[4],-0.378
same,glycan array binding signal (z-score),[5],0.373
same,glycan array binding signal (z-score),Man(a1-3)[Man(a1-6)]Man,-0.454
same,glycan array binding signal (z-score),[6],-0.449
same,glycan array binding signal (z-score),[7],1.02
same,glycan array binding signal (z-score),[8],0.389
same,glycan array binding signal (z-score),[9],-0.449
same,glycan array binding signal (z-score),[10],-0.385
same,glycan array binding signal (z-score),Man(a1-6)Man,0.014
same,glycan array binding signal (z-score),Man(b1-4)GlcNAc,8.49
same,glycan array binding signal (z-score),MurNAc(b1-4)GlcNAc,1.1
same,glycan array binding signal (z-score),Neu5Ac(a2-3)Gal,-0.41
same,glycan array binding signal (z-score),[11],-0.371
same,glycan array binding signal (z-score),[12],-0.006
same,glycan array binding signal (z-score),[13],-0.228
same,glycan array binding signal (z-score),[14],0.143
same,glycan array binding signal (z-score),[15],-0.558
same,glycan array binding signal (z-score),[16],0.152
same,glycan array binding signal (z-score),[17],-0.723
same,glycan array binding signal (z-score),[18],-0.781
same,glycan array binding signal (z-score),[19],-0.056
same,glycan array binding signal (z-score),[20],2.31
same,glycan array binding signal (z-score),[21],-0.365
same,glycan array binding signal (z-score),[22],-0.295
same,glycan array binding signal (z-score),[23],-0.522
same,glycan array binding signal (z-score),[24],-0.649
same,glycan array binding signal (z-score),[25],-0.543
same,glycan array binding signal (z-score),[26],0.494
same,glycan array binding signal (z-score),[27],-0.82
same,glycan array binding signal (z-score),[28],0.72
same,glycan array binding signal (z-score),[29],2.98
same,glycan array binding signal (z-score),[30],-0.799
same,glycan array binding signal (z-score),[31],-0.386
same,glycan array binding signal (z-score),[32],-0.57
same,glycan array binding signal (z-score),[33],0.122
same,glycan array binding signal (z-score),Neu5Ac(a2-3)Gal(b1-4)Glc,0.227
same,glycan array binding signal (z-score),[34],-0.445
same,glycan array binding signal (z-score),[35],-0.018
same,glycan array binding signal (z-score),[36],-0.132
same,glycan array binding signal (z-score),[37],-0.397
same,glycan array binding signal (z-score),[38],-0.492
same,glycan array binding signal (z-score),[39],0.133

# Some of the entries above in another layout:
binder	measurement	setting	value
Mermaid1 (Stilbonema majum) (protein) MGSSHHHHHHSSGLVPRGSHMAASGWLRSPQGTVVKLYRRSLSWSKADEFCKDVDGRLVVDRTADMHLFLIKNVLKEKKSRVWVGLRRTAPHSRTWIWSDGTRQNEDDLDANLWLRDEPNDAAGEEECALFMYSPWEKAWGLNDYLCRGGCRSYQFICEKWIR	glycan array binding signal (z-score)	[12]	-0.006
same	glycan array binding signal (z-score)	[26]	0.494
same	glycan array binding signal (z-score)	[30]	-0.799
same	glycan array binding signal (z-score)	[32]	-0.57
same	glycan array binding signal (z-score)	Neu5Ac(a2-3)Gal(b1-4)Glc	0.227
same	glycan array binding signal (z-score)	[35]	-0.018
same	glycan array binding signal (z-score)	[36]	-0.132
same	glycan array binding signal (z-score)	[37]	-0.397
